PubChem BioAssay AID1508597, Cure First | 2020
This is an unselected part of the about 2,100 reagents, under one of the conditions tested. 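Calls flag viability under 80% in either arm, not effects specific to rucaparib; the reference for percent is not stated.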 A reagent listed more than once was tested more than once; the source does not tell the runs apart. The record does not give: the 100% reference.

Purpose: 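Survival screen with siRNA in ovarian cancer cells derived from patients, with or without rucaparib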 (primary screen)
System: human ovarian carcinoma lines grown from tumours: OCI-P5x (papillary serous) and OCI-C5x (clear cell)
Knock-down reagent: siRNA pool against human genes, 1.25 pmol siRNA per well
Time to read-out: 72 h or 96 h, depending on the cell culture
Challenge: rucaparib 20 µM (about IC30) or vehicle, present until read-out
Rucaparib or vehicle: Vehicle
Cell line: OCI-C5x (clear cell)
Measurement: 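Luminescent ATP-based viability assay read 72 or 96 h after transfection, depending on culture, given as normalised percent viability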
Direction: viability, normalised: higher = more viable cells remaining
Active means: 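Active when normalised viability falls below 80 percent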
Meaning of the calls: active = viability under 80%; inactive = viability 80% or more

LTK (leukocyte receptor tyrosine kinase), technical replicate 1 scored viability, normalised (%) = 61.7; active.
LTK (leukocyte receptor tyrosine kinase), technical replicate 2 scored viability, normalised (%) = 38.6; active.
With LTK (leukocyte receptor tyrosine kinase), technical replicate 3, the entry reads viability, normalised (%) = 45.1; active.
For FANCG (FA complementation group G), technical replicate 1, the values are viability, normalised (%) = 86.3; inactive.
With FANCG (FA complementation group G), technical replicate 2, the values are viability, normalised (%) = 74.6; active.
FANCG (FA complementation group G), technical replicate 3 gave viability, normalised (%) = 80.2; inactive.
CKB (creatine kinase B), technical replicate 1 scored viability, normalised (%) = 56.3; active.
With CKB (creatine kinase B), technical replicate 2, the values are viability, normalised (%) = 62.4; active.
With CKB (creatine kinase B), technical replicate 3 the deposit lists viability, normalised (%) = 58.9; active.
DRD2 (dopamine receptor D2), technical replicate 1 scored viability, normalised (%) = 62.7; active.
DRD2 (dopamine receptor D2), technical replicate 2 scored viability, normalised (%) = 60.4; active.
DRD2 (dopamine receptor D2), technical replicate 3 scored viability, normalised (%) = 43.7; active.
For SCML2 (Scm polycomb group protein like 2), technical replicate 1, the values are viability, normalised (%) = 48.7; active.
SCML2 (Scm polycomb group protein like 2), technical replicate 2 showed viability, normalised (%) = 45.6; active.
SCML2 (Scm polycomb group protein like 2), technical replicate 3 showed viability, normalised (%) = 45.7; active.
ADAM9 (ADAM metallopeptidase domain 9), technical replicate 1 showed viability, normalised (%) = 27.8; active.
With ADAM9 (ADAM metallopeptidase domain 9), technical replicate 2 the deposit lists viability, normalised (%) = 39.4; active.
ADAM9 (ADAM metallopeptidase domain 9), technical replicate 3 showed viability, normalised (%) = 31.4; active.
SLC22A11, technical replicate 1 gave viability, normalised (%) = 33.1; active.
With SLC22A11, technical replicate 2 the deposit lists viability, normalised (%) = 35.4; active.
With SLC22A11, technical replicate 3, the entry reads viability, normalised (%) = 24.6; active.
For CLK1 (CDC like kinase 1), technical replicate 1, the values are viability, normalised (%) = 73.7; active.
CLK1 (CDC like kinase 1), technical replicate 2 gave viability, normalised (%) = 37.5; active.
CLK1 (CDC like kinase 1), technical replicate 3 showed viability, normalised (%) = 46.3; active.
HIRIP3 (HIRA interacting protein 3), technical replicate 1 gave viability, normalised (%) = 59.2; active.
For HIRIP3 (HIRA interacting protein 3), technical replicate 2, the values are viability, normalised (%) = 67.8; active.
HIRIP3 (HIRA interacting protein 3), technical replicate 3 scored viability, normalised (%) = 58.4; active.
For NRBP1 (nuclear receptor binding protein 1), technical replicate 1, the values are viability, normalised (%) = 59.6; active.
With NRBP1 (nuclear receptor binding protein 1), technical replicate 2, the values are viability, normalised (%) = 55.1; active.
NRBP1 (nuclear receptor binding protein 1), technical replicate 3 gave viability, normalised (%) = 50.4; active.
DHX9 (DExH-box helicase 9), technical replicate 1 gave viability, normalised (%) = 29.8; active.
For DHX9 (DExH-box helicase 9), technical replicate 1, the entry reads viability, normalised (%) = 42.1; active.
DHX9 (DExH-box helicase 9), technical replicate 2 gave viability, normalised (%) = 36.2; active.
For DHX9 (DExH-box helicase 9), technical replicate 2, the values are viability, normalised (%) = 69.7; active.
With DHX9 (DExH-box helicase 9), technical replicate 3 the deposit lists viability, normalised (%) = 29.3; active.
DHX9 (DExH-box helicase 9), technical replicate 3 scored viability, normalised (%) = 57.2; active.
With EDC4 (enhancer of mRNA decapping 4), technical replicate 1, the values are viability, normalised (%) = 61.3; active.
For EDC4 (enhancer of mRNA decapping 4), technical replicate 2, the entry reads viability, normalised (%) = 74.5; active.
EDC4 (enhancer of mRNA decapping 4), technical replicate 3 showed viability, normalised (%) = 54.4; active.
POLD3 (DNA polymerase delta 3, accessory subunit), technical replicate 1 scored viability, normalised (%) = 45.5; active.
POLD3 (DNA polymerase delta 3, accessory subunit), technical replicate 2 showed viability, normalised (%) = 45.4; active.
POLD3 (DNA polymerase delta 3, accessory subunit), technical replicate 3 scored viability, normalised (%) = 55.4; active.

Copied from the list:
Under “Call”, SLC22A11, technical replicate 3 shows active
Result for EDC4 (enhancer of mRNA decapping 4), technical replicate 1 in “viability, normalised (%)”: 61.3
